Experimental data published in the supplement of paper PMC10849652.
The other results are listed elsewhere or left out.

By UniProt entry, the sequences of proteins in these tests, tags left out. Where a name states a change or a piece, a line headed by the entry shows the natural chain unless it says otherwise.
UniProt Q13426: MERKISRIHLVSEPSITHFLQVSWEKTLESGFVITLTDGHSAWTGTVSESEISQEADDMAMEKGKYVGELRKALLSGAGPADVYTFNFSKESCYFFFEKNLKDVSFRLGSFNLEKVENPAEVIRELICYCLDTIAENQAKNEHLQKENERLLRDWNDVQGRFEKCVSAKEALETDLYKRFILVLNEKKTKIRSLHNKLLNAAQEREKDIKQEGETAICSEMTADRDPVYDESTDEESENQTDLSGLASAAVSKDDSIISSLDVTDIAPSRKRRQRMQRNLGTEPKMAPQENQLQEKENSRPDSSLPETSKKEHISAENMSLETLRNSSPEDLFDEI
UniProt Q9HBF4: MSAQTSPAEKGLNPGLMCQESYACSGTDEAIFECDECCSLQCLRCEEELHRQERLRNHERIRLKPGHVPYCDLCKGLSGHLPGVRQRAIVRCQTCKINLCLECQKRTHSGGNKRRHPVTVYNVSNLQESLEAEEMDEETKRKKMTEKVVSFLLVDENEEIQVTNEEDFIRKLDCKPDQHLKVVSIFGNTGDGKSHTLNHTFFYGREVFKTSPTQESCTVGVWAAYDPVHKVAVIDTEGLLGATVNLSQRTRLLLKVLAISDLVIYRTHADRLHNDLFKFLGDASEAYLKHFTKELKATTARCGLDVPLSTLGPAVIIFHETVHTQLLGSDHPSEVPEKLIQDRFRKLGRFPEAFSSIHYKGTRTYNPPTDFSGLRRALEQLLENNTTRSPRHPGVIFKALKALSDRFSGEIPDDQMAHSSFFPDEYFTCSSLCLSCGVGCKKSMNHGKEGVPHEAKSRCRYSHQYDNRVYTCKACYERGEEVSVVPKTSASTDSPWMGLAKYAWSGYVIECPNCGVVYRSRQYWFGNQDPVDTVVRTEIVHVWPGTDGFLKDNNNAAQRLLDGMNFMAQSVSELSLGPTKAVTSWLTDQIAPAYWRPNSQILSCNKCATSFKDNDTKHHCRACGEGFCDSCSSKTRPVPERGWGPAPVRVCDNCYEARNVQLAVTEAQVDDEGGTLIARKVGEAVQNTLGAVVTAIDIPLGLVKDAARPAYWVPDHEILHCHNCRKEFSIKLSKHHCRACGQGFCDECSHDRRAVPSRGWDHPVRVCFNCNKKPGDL
UniProt O95619, whole entry, looked up: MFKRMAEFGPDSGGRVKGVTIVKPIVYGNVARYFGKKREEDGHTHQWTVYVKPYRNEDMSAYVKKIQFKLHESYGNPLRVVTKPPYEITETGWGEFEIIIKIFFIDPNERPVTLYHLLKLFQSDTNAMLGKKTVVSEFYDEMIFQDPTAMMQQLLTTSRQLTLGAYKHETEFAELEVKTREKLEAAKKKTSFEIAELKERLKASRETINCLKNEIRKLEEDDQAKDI
UniProt O43298: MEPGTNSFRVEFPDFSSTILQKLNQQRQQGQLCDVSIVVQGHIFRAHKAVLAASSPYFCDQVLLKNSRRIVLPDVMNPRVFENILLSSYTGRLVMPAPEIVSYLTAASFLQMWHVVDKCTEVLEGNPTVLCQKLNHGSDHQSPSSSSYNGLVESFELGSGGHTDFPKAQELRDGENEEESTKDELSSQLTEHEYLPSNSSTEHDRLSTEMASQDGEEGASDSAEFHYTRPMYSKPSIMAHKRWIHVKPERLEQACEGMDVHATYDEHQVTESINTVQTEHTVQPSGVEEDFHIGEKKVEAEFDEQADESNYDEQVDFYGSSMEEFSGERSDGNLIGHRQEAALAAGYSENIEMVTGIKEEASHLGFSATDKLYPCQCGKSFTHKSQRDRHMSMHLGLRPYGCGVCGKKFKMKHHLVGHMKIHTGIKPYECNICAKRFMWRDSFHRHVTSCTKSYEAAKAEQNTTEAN
UniProt Q9UBW7: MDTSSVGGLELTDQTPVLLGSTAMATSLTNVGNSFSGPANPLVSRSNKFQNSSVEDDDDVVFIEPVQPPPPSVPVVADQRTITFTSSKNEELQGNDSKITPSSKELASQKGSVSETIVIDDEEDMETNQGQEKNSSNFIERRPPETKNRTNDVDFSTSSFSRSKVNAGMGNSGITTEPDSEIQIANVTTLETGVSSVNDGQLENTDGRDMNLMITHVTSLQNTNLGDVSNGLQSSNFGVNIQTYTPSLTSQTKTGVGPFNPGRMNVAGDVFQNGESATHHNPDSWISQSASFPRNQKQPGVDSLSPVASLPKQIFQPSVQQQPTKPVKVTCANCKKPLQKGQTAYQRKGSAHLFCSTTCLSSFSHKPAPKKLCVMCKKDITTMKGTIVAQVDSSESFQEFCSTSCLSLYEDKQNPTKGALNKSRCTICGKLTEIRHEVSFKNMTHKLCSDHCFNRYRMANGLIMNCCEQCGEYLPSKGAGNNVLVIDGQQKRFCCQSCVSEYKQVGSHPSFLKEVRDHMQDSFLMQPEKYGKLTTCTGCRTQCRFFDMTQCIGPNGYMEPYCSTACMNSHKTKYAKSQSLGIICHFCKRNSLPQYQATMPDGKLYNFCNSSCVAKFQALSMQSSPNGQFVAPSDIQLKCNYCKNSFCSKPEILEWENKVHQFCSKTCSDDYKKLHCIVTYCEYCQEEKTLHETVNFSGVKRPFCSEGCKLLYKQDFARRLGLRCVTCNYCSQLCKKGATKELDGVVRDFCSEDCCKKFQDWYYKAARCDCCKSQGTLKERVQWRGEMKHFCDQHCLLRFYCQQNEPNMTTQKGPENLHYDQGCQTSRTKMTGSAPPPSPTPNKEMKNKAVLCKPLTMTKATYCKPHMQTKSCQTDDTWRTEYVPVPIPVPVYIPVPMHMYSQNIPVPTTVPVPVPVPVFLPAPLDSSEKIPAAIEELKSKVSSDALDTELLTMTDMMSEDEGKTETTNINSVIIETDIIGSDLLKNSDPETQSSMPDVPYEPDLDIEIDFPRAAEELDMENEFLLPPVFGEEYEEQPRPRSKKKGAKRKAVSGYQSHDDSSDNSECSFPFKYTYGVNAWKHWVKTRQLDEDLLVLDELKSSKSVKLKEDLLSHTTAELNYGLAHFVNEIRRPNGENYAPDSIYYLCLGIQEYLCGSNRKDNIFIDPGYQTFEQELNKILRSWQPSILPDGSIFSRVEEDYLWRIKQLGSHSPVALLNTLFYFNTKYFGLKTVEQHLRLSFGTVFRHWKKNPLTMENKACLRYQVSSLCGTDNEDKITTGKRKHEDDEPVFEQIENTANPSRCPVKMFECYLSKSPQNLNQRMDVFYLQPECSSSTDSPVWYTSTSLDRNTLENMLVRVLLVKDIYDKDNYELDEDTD
UniProt Q9ULJ3: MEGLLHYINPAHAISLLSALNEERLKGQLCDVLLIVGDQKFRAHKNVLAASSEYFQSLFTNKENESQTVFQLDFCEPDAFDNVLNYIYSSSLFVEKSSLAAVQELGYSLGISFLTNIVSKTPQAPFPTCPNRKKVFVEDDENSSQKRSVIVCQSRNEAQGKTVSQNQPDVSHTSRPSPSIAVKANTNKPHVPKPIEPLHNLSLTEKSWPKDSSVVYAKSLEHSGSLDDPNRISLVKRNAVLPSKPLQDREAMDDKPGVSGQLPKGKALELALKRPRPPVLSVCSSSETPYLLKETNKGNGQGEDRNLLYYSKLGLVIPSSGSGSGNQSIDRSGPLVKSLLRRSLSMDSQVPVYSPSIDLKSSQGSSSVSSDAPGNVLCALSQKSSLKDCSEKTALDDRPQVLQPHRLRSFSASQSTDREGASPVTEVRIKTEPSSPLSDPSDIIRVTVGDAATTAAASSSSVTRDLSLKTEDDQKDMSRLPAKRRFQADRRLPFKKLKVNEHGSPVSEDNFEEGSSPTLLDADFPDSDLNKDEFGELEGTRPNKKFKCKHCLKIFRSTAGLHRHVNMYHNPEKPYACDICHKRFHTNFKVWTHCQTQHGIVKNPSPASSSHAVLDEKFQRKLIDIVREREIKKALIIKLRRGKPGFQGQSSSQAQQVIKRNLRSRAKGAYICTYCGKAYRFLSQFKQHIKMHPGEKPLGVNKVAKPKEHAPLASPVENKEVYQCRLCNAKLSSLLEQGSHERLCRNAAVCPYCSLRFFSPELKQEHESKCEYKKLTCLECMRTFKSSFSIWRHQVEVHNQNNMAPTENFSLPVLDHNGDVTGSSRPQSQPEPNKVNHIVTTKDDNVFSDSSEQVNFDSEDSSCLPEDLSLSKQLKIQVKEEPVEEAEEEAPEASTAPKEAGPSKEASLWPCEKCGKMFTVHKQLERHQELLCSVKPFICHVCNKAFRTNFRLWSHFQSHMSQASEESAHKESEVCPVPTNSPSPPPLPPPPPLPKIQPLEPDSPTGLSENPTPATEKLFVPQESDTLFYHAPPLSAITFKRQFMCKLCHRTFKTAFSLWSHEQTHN
UniProt P07947, whole entry, looked up: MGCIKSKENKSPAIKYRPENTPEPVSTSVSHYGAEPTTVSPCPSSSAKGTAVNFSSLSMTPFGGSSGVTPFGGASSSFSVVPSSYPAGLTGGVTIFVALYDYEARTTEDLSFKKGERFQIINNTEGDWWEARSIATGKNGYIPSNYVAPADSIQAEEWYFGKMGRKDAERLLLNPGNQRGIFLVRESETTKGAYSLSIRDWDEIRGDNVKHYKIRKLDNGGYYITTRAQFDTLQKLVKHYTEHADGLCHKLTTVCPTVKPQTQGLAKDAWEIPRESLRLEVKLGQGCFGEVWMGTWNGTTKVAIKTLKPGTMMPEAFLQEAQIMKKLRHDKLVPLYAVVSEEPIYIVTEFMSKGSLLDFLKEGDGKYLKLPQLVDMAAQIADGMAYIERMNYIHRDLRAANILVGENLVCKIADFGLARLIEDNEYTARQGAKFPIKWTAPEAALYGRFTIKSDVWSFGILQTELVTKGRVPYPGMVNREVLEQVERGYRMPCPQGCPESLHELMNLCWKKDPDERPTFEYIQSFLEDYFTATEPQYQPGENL
UniProt Q5T200: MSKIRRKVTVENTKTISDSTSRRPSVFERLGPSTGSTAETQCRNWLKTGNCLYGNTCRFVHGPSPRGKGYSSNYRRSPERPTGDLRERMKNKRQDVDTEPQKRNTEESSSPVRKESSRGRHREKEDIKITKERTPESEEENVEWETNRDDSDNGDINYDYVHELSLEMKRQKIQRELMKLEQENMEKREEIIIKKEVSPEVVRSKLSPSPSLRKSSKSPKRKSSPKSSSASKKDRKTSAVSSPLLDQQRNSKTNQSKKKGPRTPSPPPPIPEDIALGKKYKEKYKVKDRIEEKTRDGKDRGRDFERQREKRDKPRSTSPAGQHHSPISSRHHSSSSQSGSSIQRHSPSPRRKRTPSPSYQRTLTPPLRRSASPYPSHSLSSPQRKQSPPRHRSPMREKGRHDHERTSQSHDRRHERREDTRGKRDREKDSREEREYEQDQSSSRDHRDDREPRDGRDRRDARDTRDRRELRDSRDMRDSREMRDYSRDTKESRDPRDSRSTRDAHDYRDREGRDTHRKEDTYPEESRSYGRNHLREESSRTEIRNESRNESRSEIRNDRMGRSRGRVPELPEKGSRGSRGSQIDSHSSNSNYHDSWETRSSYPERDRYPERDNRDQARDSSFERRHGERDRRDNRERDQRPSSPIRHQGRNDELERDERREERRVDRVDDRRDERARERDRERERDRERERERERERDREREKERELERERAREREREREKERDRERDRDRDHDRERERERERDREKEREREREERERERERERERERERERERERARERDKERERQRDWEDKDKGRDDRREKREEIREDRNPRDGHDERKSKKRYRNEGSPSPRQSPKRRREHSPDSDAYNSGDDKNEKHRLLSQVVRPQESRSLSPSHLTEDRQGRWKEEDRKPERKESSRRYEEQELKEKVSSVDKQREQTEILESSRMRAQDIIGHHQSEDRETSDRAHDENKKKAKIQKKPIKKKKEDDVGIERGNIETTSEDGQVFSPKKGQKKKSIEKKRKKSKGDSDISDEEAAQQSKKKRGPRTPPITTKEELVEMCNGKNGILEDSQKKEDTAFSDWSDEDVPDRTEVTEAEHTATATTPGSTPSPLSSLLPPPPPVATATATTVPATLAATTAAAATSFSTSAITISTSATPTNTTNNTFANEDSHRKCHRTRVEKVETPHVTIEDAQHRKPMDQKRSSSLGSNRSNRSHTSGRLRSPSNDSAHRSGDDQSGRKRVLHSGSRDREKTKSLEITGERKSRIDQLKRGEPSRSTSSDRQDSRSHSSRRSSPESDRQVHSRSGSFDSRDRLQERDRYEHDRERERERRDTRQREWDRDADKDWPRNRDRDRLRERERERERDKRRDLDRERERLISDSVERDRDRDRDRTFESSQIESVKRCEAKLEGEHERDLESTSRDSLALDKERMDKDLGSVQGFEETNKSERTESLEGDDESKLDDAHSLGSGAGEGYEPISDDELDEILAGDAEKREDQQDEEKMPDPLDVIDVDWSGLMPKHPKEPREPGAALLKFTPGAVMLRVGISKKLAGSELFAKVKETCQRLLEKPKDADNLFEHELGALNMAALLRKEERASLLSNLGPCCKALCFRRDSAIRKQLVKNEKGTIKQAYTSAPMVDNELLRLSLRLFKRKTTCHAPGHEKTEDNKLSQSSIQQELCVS

The targets below were run with C1=CC=C(C=C1)[C@H](COC2=CC3=C(C=C2)NC(=O)N3)NC(=O)C4=CC=CN(C4=O)CC5=CC(=C(C=C5)F)F (assay: log2 fold change, soluble protein after heating vs DMSO (PISA); higher = thermal stabilisation; K562 cells, 10 uM, 30 min; active = over 0.2 and 3.5 SD of the protein, either way, in both replicates (recomputed)).
In short: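 K562 cells at 2×10^6 cells/mL were given 10 μM compound for 30 min. Aliquots then went through 3 min of heating across 48°C-58°C, were pooled, and were extracted in PBS with 0.5% NP-40 at 4°C, and the supernatant after 21,000xg for 90 min was quantified by TMTpro 16plex LC-MS/MS with channel sums equalised. Thermal stability relative to control samples, from duplicates, is given as log2 fold change.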

| Target | log2 fold change |
| --- | --- |
| YAE1 (UniProt Q9NRH1) | inactive: -0.021 |
| ZDHHC20 (UniProt Q5W0Z9) | inactive: -0.023 |
| YTHDF3 (UniProt Q7Z739) | inactive: 0.007 |
| XXYLT1 (UniProt Q8NBI6) | inactive: -0.015 |
| XRCC4 (UniProt Q13426) | inactive: 0.009 |
| ZC3H4 (UniProt Q9UPT8) | inactive: 0.064 |
| ZFYVE1 (UniProt Q9HBF4) | inactive: -0.039 |
| YTHDF2 (UniProt Q9Y5A9) | inactive: 0 |
| YEATS4 (UniProt O95619) | inactive: -0.006 |
| ZDHHC5 (UniProt Q9C0B5) | inactive: 0.015 |
| ZFYVE28 (UniProt Q9HCC9) | inactive: -0.082 |
| XRN2 (UniProt Q9H0D6) | inactive: 0.017 |
| ZDHHC2 (UniProt Q9UIJ5) | inactive: 0.156 |
| ZBTB43 (UniProt O43298) | inactive: -0.105 |
| ZFPL1 (UniProt O95159) | inactive: 0.09 |
| ZDHHC14 (UniProt Q8IZN3) | inactive: 0.111 |
| YME1L1 (UniProt Q96TA2) | inactive: 0.021 |
| YTHDF1 (UniProt Q9BYJ9) | inactive: 0.14 |
| YKT6 (UniProt O15498) | inactive: 0.014 |

Already shown: entries from further up.

| Target | log2 fold change |
| --- | --- |
| ZFYVE28 (UniProt Q9HCC9) | inactive: -0.082 |
| XRN2 (UniProt Q9H0D6) | inactive: 0.017 |
| ZDHHC2 (UniProt Q9UIJ5) | inactive: 0.156 |
| ZBTB43 (UniProt O43298) | inactive: -0.105 |
| ZFPL1 (UniProt O95159) | inactive: 0.09 |
| ZDHHC14 (UniProt Q8IZN3) | inactive: 0.111 |

Next part.

| Target | log2 fold change |
| --- | --- |
| ZNF225 (UniProt Q9UK10) | inactive: 0.087 |
| XRCC5 (UniProt P13010) | inactive: -0.136 |
| XPR1 (UniProt Q9UBH6) | inactive: -0.004 |
| ZFC3H1 (UniProt O60293) | inactive: -0.078 |
| ZMYM2 (UniProt Q9UBW7) | inactive: -0.302 |
| ZFAND5 (UniProt O76080) | inactive: -0.025 |
| ZBTB21 (UniProt Q9ULJ3) | inactive: -0.215 |
| ZNF131 (UniProt P52739) | inactive: 0.597 |
| YBX3 (UniProt P16989) | inactive: 0.138 |
| ZNF143 (UniProt P52747) | inactive: 0.015 |
| YES1 (UniProt P07947) | inactive: 0.025 |
| XPO1 (UniProt O14980) | inactive: -0.064 |
| YWHAG (UniProt P61981) | inactive: 0.009 |
| YWHAZ (UniProt P63104) | inactive: -0.012 |
| ZC3H13 (UniProt Q5T200) | inactive: -0.03 |
| YRDC (UniProt Q86U90) | inactive: 0.007 |
| ZMYM1 (UniProt Q5SVZ6) | inactive: 0.077 |
| ZBTB3 (UniProt Q9H5J0) | inactive: -0.024 |
